Experimental data as given in the supplement of paper PMC11732987, “Enantioselective OTUD7B fragment discovery through chemoproteomics screening and high-throughput optimisation” (Communications Chemistry, 2025).
Some of the results follow. The data scatter; read single values as rough.

Sequences of proteins named here, by UniProt entry; tags and fusion partners are left off. A change or cut given only in a name is not applied to a line headed by its entry.
UniProt Q15723: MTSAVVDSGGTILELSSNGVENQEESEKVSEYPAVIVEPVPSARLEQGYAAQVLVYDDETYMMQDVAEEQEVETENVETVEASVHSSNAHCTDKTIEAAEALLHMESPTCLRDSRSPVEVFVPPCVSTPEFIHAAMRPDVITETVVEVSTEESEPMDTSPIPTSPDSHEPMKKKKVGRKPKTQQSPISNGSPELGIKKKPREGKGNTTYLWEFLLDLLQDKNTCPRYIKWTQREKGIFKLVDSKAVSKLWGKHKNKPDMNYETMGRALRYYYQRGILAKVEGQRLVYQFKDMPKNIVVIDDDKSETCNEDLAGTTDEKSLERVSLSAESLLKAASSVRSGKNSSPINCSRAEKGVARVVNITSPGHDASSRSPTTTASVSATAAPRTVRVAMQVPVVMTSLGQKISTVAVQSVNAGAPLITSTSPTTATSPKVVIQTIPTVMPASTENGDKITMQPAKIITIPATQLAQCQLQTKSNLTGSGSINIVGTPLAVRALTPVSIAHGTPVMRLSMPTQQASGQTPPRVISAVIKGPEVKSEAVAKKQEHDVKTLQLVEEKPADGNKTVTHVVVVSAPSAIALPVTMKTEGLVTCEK
UniProt Q8NCM8: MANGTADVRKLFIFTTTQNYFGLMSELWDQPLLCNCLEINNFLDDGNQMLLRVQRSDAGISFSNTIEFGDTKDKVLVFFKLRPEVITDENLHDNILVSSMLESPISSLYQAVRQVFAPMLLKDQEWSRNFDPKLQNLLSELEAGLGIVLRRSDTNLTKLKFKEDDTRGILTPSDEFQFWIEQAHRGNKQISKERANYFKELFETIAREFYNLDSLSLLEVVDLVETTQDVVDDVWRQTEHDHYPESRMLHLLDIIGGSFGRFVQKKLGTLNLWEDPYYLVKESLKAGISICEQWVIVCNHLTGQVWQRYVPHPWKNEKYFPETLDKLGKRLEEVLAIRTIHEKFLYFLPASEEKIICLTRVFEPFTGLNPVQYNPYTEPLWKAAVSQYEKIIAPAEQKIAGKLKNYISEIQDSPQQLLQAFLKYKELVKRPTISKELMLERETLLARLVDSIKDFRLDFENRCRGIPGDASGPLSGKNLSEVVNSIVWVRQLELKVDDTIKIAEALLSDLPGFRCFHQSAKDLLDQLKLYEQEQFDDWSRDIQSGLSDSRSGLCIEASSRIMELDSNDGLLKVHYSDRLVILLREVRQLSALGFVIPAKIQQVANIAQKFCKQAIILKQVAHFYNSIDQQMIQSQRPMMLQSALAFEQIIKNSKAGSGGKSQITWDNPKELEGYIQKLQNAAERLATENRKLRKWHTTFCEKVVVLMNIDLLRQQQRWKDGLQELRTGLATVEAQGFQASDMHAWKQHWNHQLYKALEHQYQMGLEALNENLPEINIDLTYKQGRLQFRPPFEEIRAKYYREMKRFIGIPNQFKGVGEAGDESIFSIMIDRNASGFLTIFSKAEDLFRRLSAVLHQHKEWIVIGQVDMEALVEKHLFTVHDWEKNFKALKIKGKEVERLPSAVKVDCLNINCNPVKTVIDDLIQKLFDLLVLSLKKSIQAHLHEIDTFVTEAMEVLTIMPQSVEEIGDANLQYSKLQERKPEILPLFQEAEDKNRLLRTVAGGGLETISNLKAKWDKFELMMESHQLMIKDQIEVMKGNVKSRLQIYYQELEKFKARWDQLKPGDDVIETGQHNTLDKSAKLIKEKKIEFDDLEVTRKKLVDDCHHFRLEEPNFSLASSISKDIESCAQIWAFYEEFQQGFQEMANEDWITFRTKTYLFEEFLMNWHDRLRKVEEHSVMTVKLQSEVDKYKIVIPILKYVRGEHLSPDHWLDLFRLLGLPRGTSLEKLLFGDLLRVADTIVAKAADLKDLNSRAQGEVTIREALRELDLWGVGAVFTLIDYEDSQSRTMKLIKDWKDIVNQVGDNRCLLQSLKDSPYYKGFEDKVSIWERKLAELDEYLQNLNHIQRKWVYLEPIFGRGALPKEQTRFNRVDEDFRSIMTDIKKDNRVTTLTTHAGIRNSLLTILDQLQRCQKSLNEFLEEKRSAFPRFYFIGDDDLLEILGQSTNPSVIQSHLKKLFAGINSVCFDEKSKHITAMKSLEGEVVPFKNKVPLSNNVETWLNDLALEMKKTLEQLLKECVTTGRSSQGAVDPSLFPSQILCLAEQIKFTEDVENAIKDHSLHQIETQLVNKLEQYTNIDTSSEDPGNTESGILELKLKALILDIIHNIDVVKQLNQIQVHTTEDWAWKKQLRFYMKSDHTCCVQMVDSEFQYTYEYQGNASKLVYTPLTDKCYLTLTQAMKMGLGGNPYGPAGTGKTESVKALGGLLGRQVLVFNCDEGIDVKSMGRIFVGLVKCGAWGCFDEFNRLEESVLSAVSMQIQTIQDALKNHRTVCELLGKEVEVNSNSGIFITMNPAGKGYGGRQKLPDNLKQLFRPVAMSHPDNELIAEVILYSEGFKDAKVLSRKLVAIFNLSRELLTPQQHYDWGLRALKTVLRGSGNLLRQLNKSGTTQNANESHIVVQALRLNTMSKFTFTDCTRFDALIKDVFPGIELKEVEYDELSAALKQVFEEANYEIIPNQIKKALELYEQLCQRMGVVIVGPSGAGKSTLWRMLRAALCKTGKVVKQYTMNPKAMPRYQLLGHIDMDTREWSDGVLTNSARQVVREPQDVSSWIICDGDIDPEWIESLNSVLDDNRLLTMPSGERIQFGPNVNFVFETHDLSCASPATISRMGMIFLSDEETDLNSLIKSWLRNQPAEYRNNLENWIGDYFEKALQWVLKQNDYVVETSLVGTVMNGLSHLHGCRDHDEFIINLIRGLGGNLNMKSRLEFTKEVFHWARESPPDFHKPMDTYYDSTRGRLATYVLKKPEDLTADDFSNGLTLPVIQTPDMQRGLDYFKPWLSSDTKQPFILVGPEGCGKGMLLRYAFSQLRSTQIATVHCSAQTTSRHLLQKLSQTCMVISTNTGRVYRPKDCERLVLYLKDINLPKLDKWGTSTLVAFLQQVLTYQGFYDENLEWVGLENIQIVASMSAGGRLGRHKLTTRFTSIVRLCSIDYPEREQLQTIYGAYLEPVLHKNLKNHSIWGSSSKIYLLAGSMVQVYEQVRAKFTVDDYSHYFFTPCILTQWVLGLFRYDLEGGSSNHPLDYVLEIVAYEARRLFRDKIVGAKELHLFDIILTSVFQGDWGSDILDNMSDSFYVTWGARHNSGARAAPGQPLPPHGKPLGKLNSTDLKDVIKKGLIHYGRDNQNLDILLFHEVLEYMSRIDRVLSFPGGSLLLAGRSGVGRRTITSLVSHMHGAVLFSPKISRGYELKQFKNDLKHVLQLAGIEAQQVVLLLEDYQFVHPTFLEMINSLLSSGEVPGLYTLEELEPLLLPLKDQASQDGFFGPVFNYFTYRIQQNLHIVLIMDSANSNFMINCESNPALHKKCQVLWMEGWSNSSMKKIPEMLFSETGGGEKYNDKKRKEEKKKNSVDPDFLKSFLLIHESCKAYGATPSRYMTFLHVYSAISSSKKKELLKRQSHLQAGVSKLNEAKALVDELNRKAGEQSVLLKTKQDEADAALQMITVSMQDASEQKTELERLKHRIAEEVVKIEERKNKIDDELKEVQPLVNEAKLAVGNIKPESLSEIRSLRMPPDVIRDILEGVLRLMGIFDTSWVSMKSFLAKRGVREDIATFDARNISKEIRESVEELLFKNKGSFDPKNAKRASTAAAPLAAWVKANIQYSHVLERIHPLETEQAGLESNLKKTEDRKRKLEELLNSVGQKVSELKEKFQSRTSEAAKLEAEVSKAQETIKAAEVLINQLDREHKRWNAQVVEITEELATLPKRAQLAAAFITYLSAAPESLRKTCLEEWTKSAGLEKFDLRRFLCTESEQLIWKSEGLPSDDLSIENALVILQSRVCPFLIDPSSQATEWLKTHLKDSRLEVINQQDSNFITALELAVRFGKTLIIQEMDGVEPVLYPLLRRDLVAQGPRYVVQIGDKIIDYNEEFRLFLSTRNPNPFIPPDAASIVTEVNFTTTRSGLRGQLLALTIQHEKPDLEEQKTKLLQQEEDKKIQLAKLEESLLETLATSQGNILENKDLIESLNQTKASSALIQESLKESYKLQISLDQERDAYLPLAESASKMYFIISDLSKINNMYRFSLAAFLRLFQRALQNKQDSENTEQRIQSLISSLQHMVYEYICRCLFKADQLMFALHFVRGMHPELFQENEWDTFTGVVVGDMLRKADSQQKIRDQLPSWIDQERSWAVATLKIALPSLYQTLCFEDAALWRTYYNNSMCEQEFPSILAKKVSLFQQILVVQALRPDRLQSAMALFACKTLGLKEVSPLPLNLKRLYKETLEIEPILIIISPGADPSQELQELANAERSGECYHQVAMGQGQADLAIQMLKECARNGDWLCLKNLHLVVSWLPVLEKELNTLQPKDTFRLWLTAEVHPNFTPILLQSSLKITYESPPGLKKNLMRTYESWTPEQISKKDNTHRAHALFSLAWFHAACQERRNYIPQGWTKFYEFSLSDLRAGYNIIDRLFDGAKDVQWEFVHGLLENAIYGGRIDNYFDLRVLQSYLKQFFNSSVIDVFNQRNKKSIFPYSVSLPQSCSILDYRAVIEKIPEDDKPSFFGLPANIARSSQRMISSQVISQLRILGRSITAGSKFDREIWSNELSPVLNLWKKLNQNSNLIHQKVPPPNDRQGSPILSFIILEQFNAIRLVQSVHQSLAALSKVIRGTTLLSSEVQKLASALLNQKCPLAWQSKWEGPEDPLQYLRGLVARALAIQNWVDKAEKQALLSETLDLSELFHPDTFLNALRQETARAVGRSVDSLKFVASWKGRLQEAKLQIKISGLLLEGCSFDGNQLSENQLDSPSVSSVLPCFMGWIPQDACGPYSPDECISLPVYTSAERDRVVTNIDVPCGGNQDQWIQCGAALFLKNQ
UniProt Q7RTS9: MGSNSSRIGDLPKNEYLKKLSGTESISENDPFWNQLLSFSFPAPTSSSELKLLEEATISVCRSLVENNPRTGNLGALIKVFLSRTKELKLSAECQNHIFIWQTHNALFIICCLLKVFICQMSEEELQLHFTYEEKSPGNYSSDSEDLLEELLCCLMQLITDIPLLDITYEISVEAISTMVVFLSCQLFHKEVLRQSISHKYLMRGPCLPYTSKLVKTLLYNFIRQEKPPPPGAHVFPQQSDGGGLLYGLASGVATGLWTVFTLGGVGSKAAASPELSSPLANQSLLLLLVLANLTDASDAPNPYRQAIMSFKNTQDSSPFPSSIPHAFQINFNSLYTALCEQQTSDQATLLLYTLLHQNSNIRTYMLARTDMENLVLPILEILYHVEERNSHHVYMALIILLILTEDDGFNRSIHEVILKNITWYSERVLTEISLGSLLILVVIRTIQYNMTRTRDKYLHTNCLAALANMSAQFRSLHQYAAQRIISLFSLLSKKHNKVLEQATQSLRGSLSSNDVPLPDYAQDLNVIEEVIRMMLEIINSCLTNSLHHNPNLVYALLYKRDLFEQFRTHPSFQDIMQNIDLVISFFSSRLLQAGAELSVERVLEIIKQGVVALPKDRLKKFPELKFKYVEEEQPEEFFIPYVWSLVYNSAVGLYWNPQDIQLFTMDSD
UniProt P41091: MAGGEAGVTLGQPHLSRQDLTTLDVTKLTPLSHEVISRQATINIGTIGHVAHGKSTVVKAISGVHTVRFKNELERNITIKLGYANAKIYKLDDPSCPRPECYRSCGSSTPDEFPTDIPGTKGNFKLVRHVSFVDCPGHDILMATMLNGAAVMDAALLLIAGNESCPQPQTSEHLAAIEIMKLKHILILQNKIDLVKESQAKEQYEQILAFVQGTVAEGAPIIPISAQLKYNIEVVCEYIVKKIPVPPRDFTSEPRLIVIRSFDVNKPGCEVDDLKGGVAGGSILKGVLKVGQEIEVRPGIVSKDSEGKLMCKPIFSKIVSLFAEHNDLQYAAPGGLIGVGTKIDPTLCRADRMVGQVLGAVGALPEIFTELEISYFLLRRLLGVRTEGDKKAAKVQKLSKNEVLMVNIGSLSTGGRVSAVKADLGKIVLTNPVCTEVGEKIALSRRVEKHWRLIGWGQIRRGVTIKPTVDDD
UniProt Q14232, whole entry, looked up: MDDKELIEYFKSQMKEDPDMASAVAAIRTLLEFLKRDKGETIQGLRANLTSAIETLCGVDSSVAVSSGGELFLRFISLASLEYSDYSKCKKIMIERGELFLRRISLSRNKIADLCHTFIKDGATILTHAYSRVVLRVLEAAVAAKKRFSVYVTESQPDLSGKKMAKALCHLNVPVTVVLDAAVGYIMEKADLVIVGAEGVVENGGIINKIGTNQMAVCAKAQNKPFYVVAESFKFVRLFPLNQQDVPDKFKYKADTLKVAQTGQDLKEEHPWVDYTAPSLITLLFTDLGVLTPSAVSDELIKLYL
UniProt P06730, whole entry, looked up: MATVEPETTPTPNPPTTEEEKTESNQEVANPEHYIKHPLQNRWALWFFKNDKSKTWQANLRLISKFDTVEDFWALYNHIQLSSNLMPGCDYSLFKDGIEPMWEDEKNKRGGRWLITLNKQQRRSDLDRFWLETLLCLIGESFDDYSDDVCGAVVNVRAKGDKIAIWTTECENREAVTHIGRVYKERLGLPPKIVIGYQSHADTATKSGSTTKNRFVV

Compound: ClCC(=O)N[C@H]1CCCc2ccccc12
Assay: log2 mean competition ratio of IA-DTB cysteine labelling (DMSO/compound) (log2 ratio); higher = stronger cysteine engagement by compound
Settings: 50 µM; treatment time: 4 h; cell line lysate: HEK293T
Protocol: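 IA-DTB competitive cysteine chemoproteomics in HEK293T RIPA lysate. Lysates were treated with compound 29 or 30 at 50 or 200 µM for 4 h, then IA-DTB (500 µM, 1 h), trypsin-digested, NeutrAvidin-enriched and analysed by diaPASEF. Competition ratio = intensity DMSO / intensity compound (n=4 treated, n=64 DMSO); binding: mean log2 CR ≥ 1 and p ≤ 0.05 plus QC filters. Target is the cysteine site.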

Target | log2 mean competition ratio
EIF3B C527 | 0.339
ELF2 C110 (UniProt Q15723) | 0.168
EHMT2 C126 | 0.148
DYNC2H1 C2295 (UniProt Q8NCM8) | -0.0277
DTL C157 (UniProt Q9NZJ0) | 0.512
DUSP7 C54 | -0.417
DYM C207 (UniProt Q7RTS9) | -0.287
EIF2S3 C105 (UniProt P41091) | 0.322
DVL1 C382 (UniProt O14640) | -0.0328
EIF2B1 C115 (UniProt Q14232) | 0.171
EIF4G3 C982 | 0.223
EIF3A C58 (UniProt Q14152) | -0.884
EFTUD2 C166 (UniProt Q15029) | -0.224
EIF4E C170 (UniProt P06730) | 0.107
ECPAS C1638 (UniProt Q5VYK3) | -0.378
DYNC1H1 C3389 (UniProt Q14204) | 0.26
DYNC2H1 C1915 (UniProt Q8NCM8) | 0.0664
DYNC1H1 C2186 (UniProt Q14204) | -0.0822
DZIP3 C1078 (UniProt Q86Y13) | -0.147
EEF1AKMT1 C79 (UniProt Q8WVE0) | -0.386

Same assay, conditions: 200 µM; treatment time: 4 h; cell line lysate: HEK293T

Target | log2 mean competition ratio
EIF3B C527 | -0.239
ELF2 C110 (UniProt Q15723) | -0.25
EHMT2 C126 | 0.0104
DYNC2H1 C2295 (UniProt Q8NCM8) | 0.208
DTL C157 (UniProt Q9NZJ0) | 0.191
DUSP7 C54 | -0.0727
DYM C207 (UniProt Q7RTS9) | 0.0659
EIF2S3 C105 (UniProt P41091) | 0.0703
DVL1 C382 (UniProt O14640) | 0.295
EIF2B1 C115 (UniProt Q14232) | -0.294
EIF4G3 C982 | 0.103
EIF3A C58 (UniProt Q14152) | -0.0863
EFTUD2 C166 (UniProt Q15029) | -0.0844
EIF4E C170 (UniProt P06730) | 0.0201
ECPAS C1638 (UniProt Q5VYK3) | -0.0428
DYNC1H1 C3389 (UniProt Q14204) | -0.107
DYNC2H1 C1915 (UniProt Q8NCM8) | -0.14
DYNC1H1 C2186 (UniProt Q14204) | -0.368
DZIP3 C1078 (UniProt Q86Y13) | 0.00854
EEF1AKMT1 C79 (UniProt Q8WVE0) | 0.0128
